# Experimental data taken from PubChem BioAssay (NCATS).
# This list was built around the results that the source calls inconclusive (neither active nor inactive); the mix of calls is not that of the screen. Potencies of inconclusive entries are doubtful fits and often do not repeat. The source made the active and inactive calls. The call rests on the fitted dose curve; in most records, active means well fitted cell-killing curve with a large enough effect; inconclusive means small, poorly fitted or top-dose-only effect, or effect the other way; inactive means no such curve, though single readings can be large or run the other way.
# Assay: Quantitative High-Throughput drug screen in 47 multiple myeloma cell lines against the NCATS MIPE library collection: INA6_PLB cell viability assay (AID 1918965; further: nearly all actives have a fitted effect of over 55% in size)
# Details: INA6 myeloma viability, CellTiter-Glo ATP luminescence, 48 h; viability (% of control): at 45.8 µM (top of the series)
# Source text: PI: Beverly A. Mock Ph.D.
# Laboratory of Cancer Biology and Genetics,
# Center for Cancer Research, National Cancer Institute,
# National Institute of Health, Bethesda, Maryland
# Drug resistance and disease progression are common in multiple myeloma (MM) patients, underscoring the need for new therapeutic combinations. […] We hypothesized that effective combinations would reduce MYC expression and enhance p16 activity. […] These preclinical data identify potentially useful drug combinations for evaluation in drug-resistant MM and reveal potential mechanisms of combined drug sensitivity.
# Described herein is the primary MIPE qHTS used to cherrypick compounds. Validated compounds were then further tested for potential synergistic activiy.
# [1] Peat TJ, Gaikwad SM, Dubois W, Gyabaah-Kessie N, Zhang S, Gorjifard S, Phyo Z, Andres M, Hughitt VK, Simpson RM, Miller MA, Girvin AT, Taylor A, Williams D, D'Antonio N, Zhang Y, Rajagopalan A, Flietner E, Wilson K, Zhang X, Shinn P, Klumpp-Thomas C, McKnight C, Itkin Z, Chen L, Kazandijian D, Zhang J, Michalowski AM, Simmons JK, Keats J, Thomas CJ, Mock BA. Drug combinations identified by high-throughput screening promote cell cycle transition and upregulate Smad pathways in myeloma. Cancer Lett. 2023 Aug 1;568:216284. doi: 10.1016/j.canlet.2023.216284. Epub 2023 Jun 24. PMID: 37356470; PMCID: PMC10408729.
# SEQUENCE No. (e.g., 1, 2, 3, etc.); […] (e.g., Cells, Incubation, Reagent, etc.); VALUE and DESCRIPTION.
# 1; Cells; 5 uL; white, solid bottom 1536-well Greiner assay plate.
# 2; Compounds; 23 nL; Kalypsis pin tool (Wako USA) equipped with a 1536-well pin head to transfer to the assay plates.
# 3; Incubation; 48 hours; 37C incubation.
# 4; Reagent;5uL; CellTiter Glo (Promega).
# 5; Detector; 425V; Luminescence; Viewlux PerkinElmer.
# NOTES (numbers refer to Sequence numbers above)
# 1. The cell-based screening methods employed in this study were like those previously published. Briefly, the corresponding myeloma cell lines were screened in 1,536-well plates with 500 cells, 5-uL per well for inhibition of cell viability (assessed by measuring ATP levels with CellTiterGlo).
# 2. NCATS MIPE 4.0 library of approved and investigational drugs were added using the Kalypsis pin tool. Wells treated with DMSO only for 100% viability and media only wells for 0% viability were used as controls.
# 3. The assay plates were covered and incubated for 48 hours in a 37C, 5% CO2 incubator with controlled humidity.
# 4. After 48 hours, CellTilter-GloTM luminescent substrate mix (Promega) reagent was added to the assay plate and plates we incubated for 5 min at room temperature.
# 5. Signal was measured as median relative luminescence units on a ViewLux (PerkinElmer) multiplate reader.
# [1] Heske CM, Davis MI, Baumgart JT, Wilson K, Gormally MV, Chen L, Zhang X, Ceribelli M, Duveau DY, Guha R, Ferrer M, Arnaldez FI, Ji J, Tran HL, Zhang Y, Mendoza A, Helman LJ, Thomas CJ. Matrix Screen Identifies Synergistic Combination of PARP Inhibitors and Nicotinamide Phosphoribosyltransferase (NAMPT) Inhibitors in Ewing Sarcoma. Clin Cancer Res. 2017 Dec 1;23(23):7301-7311. doi: 10.1158/1078-0432.CCR-17-1121. Epub 2017 Sep 12. PMID: 28899971; PMCID: PMC6636827.
# Potency means the concentration at half of the fitted maximal effect.
SMILES,Potency,viability (% of control)
O=C(NCC1CN(c2ccc(N3CCOCC3=O)cc2)C(=O)O1)c1ccc(Cl)s1 (stereo not given),"inconclusive: 10.5 µM [cytotoxic, partial curve, poor fit]",
CC(N[C@H]1CCCC[C@H]1NC(=O)c1ccc(Cl)cc1)c1cccc2ccccc12 (stereo not given in full),"inconclusive: 33.2 µM [cytotoxic, single point]",
C[C@@H]1C[C@H]2[C@@H]3CCC4=CC(=O)C=C[C@]4(C)[C@@]3(F)[C@@H](O)C[C@]2(C)[C@@]1(O)C(=O)CO,inactive,
C[C@@H]1C(=O)O[C@H]2CC34[C@H]5C[C@@H](C(C)(C)C)C36[C@H](OC(=O)[C@@H]6O)O[C@@]4(C(=O)O5)[C@]21O (stereo not given in full),inactive,
CCCCc1nc2cc(C=CC(=O)NO)ccc2n1CCN(CC)CC,,inconclusive: 6.77% [cytotoxic]
CCN1CCN(CC(=O)Nc2ccc(-c3cccc4c(=O)cc(N5CCOCC5)oc34)c3sc4ccccc4c23)CC1,,inconclusive: 0.483% [cytotoxic]
C=C1C[C@@]2(O)O[C@@]3(C[C@H]2C(C)C)[C@H](C)CC[C@H]13,inactive,
CC1C(=O)OC2C(O)C34C5CC(C(C)(C)C)C36C(OC(=O)C6O)OC4(C(=O)O5)C12O (stereo not given),inactive,
Nc1nc(N)c2nc(CNc3ccc(C(=O)NC(CCC(=O)O)C(=O)O)cc3)cnc2n1 (stereo not given),"inconclusive: 0.0372 µM [cytotoxic, full curve]",
CC(C=CC=C(C)C=CC1=C(C)CCCC1(C)C)=CC=CC=C(C)C=CC=C(C)C=CC1=C(C)CCCC1(C)C,"inconclusive: 33.2 µM [cytotoxic, single point]",
C[C@H](Cn1cnc2c(N)ncnc21)OCP(=O)(O)O,"inconclusive: 0.0526 µM [rising, full curve, poor fit]",
COc1cccc(OC)c1-c1cc(C(=O)NC2(C(=O)O)C3CC4CC(C3)CC2C4)nn1-c1ccnc2cc(Cl)ccc12 (stereo not given),"inconclusive: 0.0019 µM [rising, full curve, poor fit]",
Cn1c(=O)c(-c2c(Cl)cccc2Cl)cc2cnc(Nc3cccc(C(=O)O)c3)nc21,"inconclusive: 0.0166 µM [cytotoxic, full curve, poor fit]",
CCn1cc(C(=O)O)c(=O)c2cc(F)c(N3CCN(C)CC3)cc21,"inconclusive: 11.8 µM [rising, single point]",
CC(C)CN(C[C@@H](O)[C@H](Cc1ccccc1)NC(=O)O[C@H]1CO[C@H]2OCC[C@H]21)S(=O)(=O)c1ccc(N)cc1,"inconclusive: 20.9 µM [cytotoxic, partial curve, poor fit]",
CC(C)CN(C[C@H](O)[C@H](Cc1ccccc1)NC(=O)O[C@H]1CCOC1)S(=O)(=O)c1ccc(N)cc1,"inconclusive: 33.2 µM [cytotoxic, single point]",
CCc1cc(C(N)=S)ccn1,"inconclusive: 23.5 µM [cytotoxic, single point]",
C[C@H](CCC(=O)O)[C@H]1CCC2C3C[C@H](O)[C@@H]4C[C@H](O)CC[C@]4(C)C3CC[C@@]21C (stereo not given in full),inactive,
Cc1ccc(C(=O)Nc2cccc(C(F)(F)F)c2)cc1-c1ccc2nc(NCCN3CCOCC3)ncc2c1,active: 3.32 µM,
CC(C)C[C@H](NC(=O)[C@H](Cc1ccccc1)NC(=O)c1cnccn1)B(O)O,,inconclusive: 4.25% [cytotoxic]

# Entries from the list above that have sulfur (5):
SMILES,Potency,viability (% of control)
O=C(NCC1CN(c2ccc(N3CCOCC3=O)cc2)C(=O)O1)c1ccc(Cl)s1 (stereo not given),"inconclusive: 10.5 µM [cytotoxic, partial curve, poor fit]",
CCN1CCN(CC(=O)Nc2ccc(-c3cccc4c(=O)cc(N5CCOCC5)oc34)c3sc4ccccc4c23)CC1,,inconclusive: 0.483% [cytotoxic]
CC(C)CN(C[C@@H](O)[C@H](Cc1ccccc1)NC(=O)O[C@H]1CO[C@H]2OCC[C@H]21)S(=O)(=O)c1ccc(N)cc1,"inconclusive: 20.9 µM [cytotoxic, partial curve, poor fit]",
CC(C)CN(C[C@H](O)[C@H](Cc1ccccc1)NC(=O)O[C@H]1CCOC1)S(=O)(=O)c1ccc(N)cc1,"inconclusive: 33.2 µM [cytotoxic, single point]",
CCc1cc(C(N)=S)ccn1,"inconclusive: 23.5 µM [cytotoxic, single point]",

# The list goes on:

SMILES,Potency,viability (% of control)
C#Cc1cccc(Nc2ncnc3cc(OCCOC)c(OCCO)cc23)c1,active: 1.32 µM,
C[C@@H](c1ncncc1F)[C@](O)(Cn1cncn1)c1ccc(F)cc1F,inactive,
NCCCC(O)(P(=O)(O)O)P(=O)(O)O,"inconclusive: 0.0053 µM [cytotoxic, full curve, poor fit]",
Cc1ccc(C(=O)N(CCCN)[C@@H](c2nc3cc(Cl)ccc3c(=O)n2Cc2ccccc2)C(C)C)cc1,"inconclusive: 6.62 µM [cytotoxic, full curve]",
C[C@H]1[C@H](O)O[C@@H]2O[C@@]3(C)CC[C@@H]4[C@H](C)CC[C@@H]1[C@@]24OO3,active: 1.66 µM,
Oc1cc2c(cc1O)C1c3ccc(O)c(O)c3OCC1(O)C2 (stereo not given),"inconclusive: 0.0021 µM [cytotoxic, full curve, poor fit]",
CCCCCCCN(CC)CCCC(O)c1ccc(NS(C)(=O)=O)cc1 (stereo not given),"inconclusive: 37.2 µM [cytotoxic, single point]",
COc1ccccc1OCC(O)COC(N)=O (stereo not given),inactive,
CC1(C)[C@H]2CC[C@]3(C)[C@@H](C(=O)C=C4[C@@H]5C[C@@](C)(C(=O)O)CC[C@]5(C)CC[C@]43C)[C@@]2(C)CC[C@@H]1O,inactive,
Cc1c(C)c2c(c(C)c1O)CCC(C)(COc1ccc(CC3SC(=O)NC3=O)cc1)O2 (stereo not given),"inconclusive: 8.33 µM [cytotoxic, single point]",
CC(=O)OC[C@@H]1O[C@@H](n2ccc(=O)[nH]c2=O)[C@H](OC(C)=O)[C@H]1OC(C)=O,"inconclusive: 0.0013 µM [cytotoxic, full curve, poor fit]",
CNC(=O)c1ccccc1Nc1nc(Nc2ccc(N3CCOCC3)cc2OC)ncc1Cl,active: 5.26 µM,
Clc1ccc2c(c1)C(N1CCNCC1)=Nc1ccccc1O2,"inconclusive: 37.2 µM [cytotoxic, single point]",
COc1cc(N2CCC(C(N)=O)CC2)ccc1Nc1nc(N)c(Cl)c(Nc2ccccc2S(=O)(=O)C(C)C)n1,active: 7.43 µM,
COc1c(C)c2c(c(O)c1CC=C(C)CCC(=O)O)C(=O)OC2,active: 0.935 µM,
Oc1cc(-c2nc(-c3ccccc3)[nH]c2-c2ccncc2)ccc1Cl,"inconclusive: 23.5 µM [cytotoxic, partial curve, poor fit]",
CN(C)CCOc1ccc(-c2nc(-c3ccc4c(c3)CCC4=NO)c(-c3ccncc3)[nH]2)cc1,"inconclusive: 33.2 µM [cytotoxic, partial curve, poor fit]",
NC1=N[C@H]2[C@H](CS[C@H]2CCCCC(=O)O)N1,inactive,
Clc1ccc(Nc2nnc(Cc3ccncc3)c3ccccc23)cc1,active: 16.6 µM,
CC(C)N(CC[C@H](c1ccccc1)c1cc(CO)ccc1O)C(C)C,inactive,
